{"source": "PubChem BioAssay AID1259308 (NCATS, 2017)", "purpose": "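Candidate targets for better recombinant protein yield in mammalian cells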 (primary screen)", "system": "human HEK293 embryonic kidney cells stably expressing firefly luciferase (HEK-CMV-Luc2-Hygro)", "reagents": "single siRNA against human genes, 0.8 pmol siRNA per well", "time to read-out": "72 h", "detection": "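Reporter luminescence and viable-cell signal on separate replicate plates, given as percent of non-targeting control and median/MAD z-scores, plus per-cell luciferase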", "direction": "total luciferase, z-score: higher = more reporter protein produced", "hit rule": "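Active when the median/MAD z-score for overall luciferase is greater than 3; a gene was taken forward for validation with new siRNAs if at least two of its three siRNAs passed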", "calls": "active = raised luciferase; inactive = no rise", "note": "In all, the deposit lists about 59,000 reagents; below is a part drawn at random. About 1,510 of all reagents (2.6%) were called active. 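Calls use total luciferase alone and ignore viability, so some active siRNAs may act by altering cell number.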 The numbers tell different reagents against one gene apart. Not all columns of the deposit are shown. Reagent sequences are not shown."}
{"target": "RAB8A (RAB8A, member RAS oncogene family)", "siRNA no.": 1, "total luciferase, z-score": -0.332, "Outcome": "inactive"}
{"target": "RAB8A (RAB8A, member RAS oncogene family)", "siRNA no.": 2, "total luciferase, z-score": -1.13, "Outcome": "inactive"}
{"target": "RAB8A (RAB8A, member RAS oncogene family)", "siRNA no.": 3, "total luciferase, z-score": -0.359, "Outcome": "inactive"}
{"target": "PATL1 (PAT1 homolog 1, processing body mRNA decay factor)", "siRNA no.": 1, "total luciferase, z-score": -0.502, "Outcome": "inactive"}
{"target": "PATL1 (PAT1 homolog 1, processing body mRNA decay factor)", "siRNA no.": 2, "total luciferase, z-score": 1.31, "Outcome": "inactive"}
{"target": "PATL1 (PAT1 homolog 1, processing body mRNA decay factor)", "siRNA no.": 3, "total luciferase, z-score": 0.33, "Outcome": "inactive"}
{"target": "VMA12 (vacuolar ATPase assembly factor VMA12)", "siRNA no.": 1, "total luciferase, z-score": -0.236, "Outcome": "inactive"}
{"target": "VMA12 (vacuolar ATPase assembly factor VMA12)", "siRNA no.": 2, "total luciferase, z-score": 0.113, "Outcome": "inactive"}
{"target": "VMA12 (vacuolar ATPase assembly factor VMA12)", "siRNA no.": 3, "total luciferase, z-score": -0.232, "Outcome": "inactive"}
{"target": "RXRG (retinoid X receptor gamma)", "siRNA no.": 1, "total luciferase, z-score": 0.328, "Outcome": "inactive"}
{"target": "RXRG (retinoid X receptor gamma)", "siRNA no.": 2, "total luciferase, z-score": -1.4, "Outcome": "inactive"}
{"target": "RXRG (retinoid X receptor gamma)", "siRNA no.": 3, "total luciferase, z-score": 0.31, "Outcome": "inactive"}
{"target": "LMNB1 (lamin B1)", "siRNA no.": 1, "total luciferase, z-score": -0.66, "Outcome": "inactive"}
{"target": "LMNB1 (lamin B1)", "siRNA no.": 2, "total luciferase, z-score": -2.34, "Outcome": "inactive"}
{"target": "LMNB1 (lamin B1)", "siRNA no.": 3, "total luciferase, z-score": -0.788, "Outcome": "inactive"}
{"target": "DMRTC2 (DMRT like family C2)", "siRNA no.": 1, "total luciferase, z-score": -0.955, "Outcome": "inactive"}
{"target": "DMRTC2 (DMRT like family C2)", "siRNA no.": 2, "total luciferase, z-score": 0.161, "Outcome": "inactive"}
{"target": "DMRTC2 (DMRT like family C2)", "siRNA no.": 3, "total luciferase, z-score": -0.233, "Outcome": "inactive"}
{"target": "CXCL12 (C-X-C motif chemokine ligand 12)", "siRNA no.": 1, "total luciferase, z-score": -0.606, "Outcome": "inactive"}
{"target": "CXCL12 (C-X-C motif chemokine ligand 12)", "siRNA no.": 2, "total luciferase, z-score": -1.13, "Outcome": "inactive"}
{"target": "CXCL12 (C-X-C motif chemokine ligand 12)", "siRNA no.": 3, "total luciferase, z-score": 2.46, "Outcome": "inactive"}
{"target": "CHTF18 (chromosome transmission fidelity factor 18)", "siRNA no.": 1, "total luciferase, z-score": 0.531, "Outcome": "inactive"}
{"target": "CHTF18 (chromosome transmission fidelity factor 18)", "siRNA no.": 2, "total luciferase, z-score": -0.472, "Outcome": "inactive"}
{"target": "CHTF18 (chromosome transmission fidelity factor 18)", "siRNA no.": 3, "total luciferase, z-score": -1.32, "Outcome": "inactive"}
{"target": "GBP3 (guanylate binding protein 3)", "siRNA no.": 1, "total luciferase, z-score": -1.48, "Outcome": "inactive"}
{"target": "GBP3 (guanylate binding protein 3)", "siRNA no.": 2, "total luciferase, z-score": 2.34, "Outcome": "inactive"}
{"target": "GBP3 (guanylate binding protein 3)", "siRNA no.": 3, "total luciferase, z-score": 0.677, "Outcome": "inactive"}
{"target": "CDKN2D (cyclin dependent kinase inhibitor 2D)", "siRNA no.": 1, "total luciferase, z-score": -0.279, "Outcome": "inactive"}
{"target": "CDKN2D (cyclin dependent kinase inhibitor 2D)", "siRNA no.": 2, "total luciferase, z-score": -0.904, "Outcome": "inactive"}
{"target": "CDKN2D (cyclin dependent kinase inhibitor 2D)", "siRNA no.": 3, "total luciferase, z-score": -1.29, "Outcome": "inactive"}
{"target": "ANKRD22 (ankyrin repeat domain 22)", "siRNA no.": 1, "total luciferase, z-score": -2, "Outcome": "inactive"}
{"target": "ANKRD22 (ankyrin repeat domain 22)", "siRNA no.": 2, "total luciferase, z-score": -1.21, "Outcome": "inactive"}
{"target": "ANKRD22 (ankyrin repeat domain 22)", "siRNA no.": 3, "total luciferase, z-score": 0.718, "Outcome": "inactive"}
{"target": "TBCE (tubulin folding cofactor E)", "siRNA no.": 1, "total luciferase, z-score": 1.35, "Outcome": "inactive"}
{"target": "TBCE (tubulin folding cofactor E)", "siRNA no.": 2, "total luciferase, z-score": -0.774, "Outcome": "inactive"}
{"target": "TBCE (tubulin folding cofactor E)", "siRNA no.": 3, "total luciferase, z-score": -2.35, "Outcome": "inactive"}
{"target": "CDC73 (cell division cycle 73)", "siRNA no.": 1, "total luciferase, z-score": 0.0123, "Outcome": "inactive"}
{"target": "CDC73 (cell division cycle 73)", "siRNA no.": 2, "total luciferase, z-score": -1.33, "Outcome": "inactive"}
{"target": "CDC73 (cell division cycle 73)", "siRNA no.": 3, "total luciferase, z-score": 0.384, "Outcome": "inactive"}
{"target": "CHL1-AS2 (CHL1 antisense RNA 2)", "siRNA no.": 1, "total luciferase, z-score": -2.02, "Outcome": "inactive"}
{"target": "CHL1-AS2 (CHL1 antisense RNA 2)", "siRNA no.": 2, "total luciferase, z-score": 0.551, "Outcome": "inactive"}
{"target": "CHL1-AS2 (CHL1 antisense RNA 2)", "siRNA no.": 3, "total luciferase, z-score": -1.26, "Outcome": "inactive"}
